Article doi:10.64898/2025.12.06.692764
No constants are given. Whether binding was seen depends on the method and setting. Binding seen in cells or lysates may run through a third protein. Some binding calls cover weakened binding; strength is not graded here.

Amino acid sequences for entries named in this document (tags omitted).
UniProt Q91YH6: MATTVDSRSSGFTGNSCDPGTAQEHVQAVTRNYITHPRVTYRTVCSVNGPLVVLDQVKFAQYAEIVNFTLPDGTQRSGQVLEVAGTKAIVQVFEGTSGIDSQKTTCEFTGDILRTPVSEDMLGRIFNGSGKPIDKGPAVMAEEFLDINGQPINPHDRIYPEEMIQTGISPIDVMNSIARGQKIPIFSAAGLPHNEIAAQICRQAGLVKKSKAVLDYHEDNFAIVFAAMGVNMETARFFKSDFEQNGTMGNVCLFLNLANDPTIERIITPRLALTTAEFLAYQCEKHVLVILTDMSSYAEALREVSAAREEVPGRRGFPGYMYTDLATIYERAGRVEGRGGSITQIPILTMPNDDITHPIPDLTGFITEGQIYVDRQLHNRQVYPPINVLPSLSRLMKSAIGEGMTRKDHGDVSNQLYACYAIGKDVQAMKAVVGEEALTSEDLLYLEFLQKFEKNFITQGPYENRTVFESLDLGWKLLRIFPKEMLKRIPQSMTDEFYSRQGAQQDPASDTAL

Target: vATPase subunit B1 (mouse (endogenous in inguinal fat)) (UniProt Q91YH6)
Assay: proximity ligation

B1: NCOA7 (protein, UniProt Q6DFV7 1-943)
chain: MDTKEEKKEQKERKQSYFARLKKKKQAKQNAEIVSAASSKSRSGKDDANSDILEQDKFNVTAEGDHSTDDKKKRKSNQLKEIRRTELKRYYSVDDNQNKTHDKKEKKMMVQKPQGTMEYTAGSQDTLNSVALKFNVTPNKLVELNKLFTHTIVPGQVLFVPDANISSSTIQLSSSTPGATVSPSSSDAEYDKLPDADLARKALKPIERVLSSTSEEDEPGVVKFLKMNCRYFTDGKGVVGGVMIVTPNNIMFDPHKSDPLVIENGCEEYGLICPMEEVVSIALYSDISHMKIKDALPSDLPRDLCPLYRPGEWEDLASEKDINPFSKFKSINKEKRQQNGERTLALDAKSVRSPEESTERTCTRIEPPDNSELWKLKNLQSSRGTTSESPSVTQLSMRAALEPTAKENCLLKGDEDFVDLEELSSQPESGINKGDATKECLSYDQKKDGPHTVMSAKKGHVQSAQEVMGPESDTELKGALDLETAEKQDEAPEVDKHSGSPENLGESTLNIHEDLDKIKLIEFYLNKNKEGSQLLENVQKSELSDRKSIEPGGIDITLSSSLPQAGDSPPEDNKEPGTLWVKGGETLPLKLDPSAEETVINNKEVLDSLGSSLDKMCHSAQMDNKSEIQLWLLKRIQVPIEDILPSKEEKSKTPPMFLCIKVGKPMRKSFASHTATMVQQYSKRRKQPEYWFAVPRERVDHLYTFFVQWSPDVYGKDAKEQGFVVVEKEELNMIDNFFSEPTTKSWEIITVEEAKRRKSTCSYYEEEEEEEEGLPILQPHSALLENMHIEQLARRLPARVQGYPWRLAYSTLEHGTSLKTLYRKSASLDSPVLLVIKDMDNQIFGAYATHPFKFSDHYYGTGETFLYTFSPNFKVFKWSGENSYFINGDISSLELGGGGGRFGLWLDADLYHGRSNSCSTFNNDILSKKEDFIVQDLEVWTFE
  binding: binds
